Results as given in paper PMC12070812.
No constants are given. Whether binding was seen depends on the method and setting. In cells and extracts the contact can be indirect. These calls come from enrichment with a bait or labelling near it, and not all partners need be listed. For part of these data: No binding means not detected with the bait.

Chains of the proteins cited; added tags and fusions are not shown. Lines headed by an entry give the natural chain unless they say otherwise; changes in a name come on top.
UniProt Q9VUH8: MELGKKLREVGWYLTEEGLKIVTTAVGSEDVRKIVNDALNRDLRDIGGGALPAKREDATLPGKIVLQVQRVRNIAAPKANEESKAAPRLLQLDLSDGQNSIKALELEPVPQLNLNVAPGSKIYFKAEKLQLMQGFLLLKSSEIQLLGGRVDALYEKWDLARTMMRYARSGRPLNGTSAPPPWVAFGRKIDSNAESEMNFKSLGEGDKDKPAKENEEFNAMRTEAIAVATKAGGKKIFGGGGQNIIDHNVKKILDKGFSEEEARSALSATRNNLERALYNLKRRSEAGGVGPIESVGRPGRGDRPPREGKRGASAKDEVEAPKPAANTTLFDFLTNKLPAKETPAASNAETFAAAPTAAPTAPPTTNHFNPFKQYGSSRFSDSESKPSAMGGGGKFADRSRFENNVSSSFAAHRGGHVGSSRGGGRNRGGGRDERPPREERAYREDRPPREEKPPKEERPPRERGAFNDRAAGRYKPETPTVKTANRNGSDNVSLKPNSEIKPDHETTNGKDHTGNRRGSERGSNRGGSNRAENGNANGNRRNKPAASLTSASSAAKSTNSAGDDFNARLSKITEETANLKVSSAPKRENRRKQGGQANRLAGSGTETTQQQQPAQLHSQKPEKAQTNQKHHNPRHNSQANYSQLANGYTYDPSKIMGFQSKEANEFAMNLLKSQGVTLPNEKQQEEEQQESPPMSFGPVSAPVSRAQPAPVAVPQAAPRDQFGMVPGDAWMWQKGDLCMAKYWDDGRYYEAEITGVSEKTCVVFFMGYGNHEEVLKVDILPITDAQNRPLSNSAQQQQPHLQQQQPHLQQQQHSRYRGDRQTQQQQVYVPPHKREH
UniProt Q9U1H9: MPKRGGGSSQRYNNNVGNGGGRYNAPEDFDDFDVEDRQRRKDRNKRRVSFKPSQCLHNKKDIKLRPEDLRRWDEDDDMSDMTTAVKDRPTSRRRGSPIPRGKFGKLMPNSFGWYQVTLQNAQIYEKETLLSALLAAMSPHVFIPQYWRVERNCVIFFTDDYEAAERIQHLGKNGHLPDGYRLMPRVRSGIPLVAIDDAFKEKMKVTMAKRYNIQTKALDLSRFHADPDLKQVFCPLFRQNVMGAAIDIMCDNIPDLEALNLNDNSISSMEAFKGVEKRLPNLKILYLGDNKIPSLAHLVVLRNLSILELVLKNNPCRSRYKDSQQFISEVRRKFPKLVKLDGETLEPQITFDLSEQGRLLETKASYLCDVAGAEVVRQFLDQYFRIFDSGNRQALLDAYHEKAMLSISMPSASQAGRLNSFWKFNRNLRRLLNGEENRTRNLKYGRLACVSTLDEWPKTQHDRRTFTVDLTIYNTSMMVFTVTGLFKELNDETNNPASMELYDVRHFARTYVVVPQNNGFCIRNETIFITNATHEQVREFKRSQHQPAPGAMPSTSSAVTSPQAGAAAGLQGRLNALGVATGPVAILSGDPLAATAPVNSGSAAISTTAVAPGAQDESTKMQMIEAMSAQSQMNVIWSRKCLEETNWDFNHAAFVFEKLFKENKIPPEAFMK
UniProt Q9VV73: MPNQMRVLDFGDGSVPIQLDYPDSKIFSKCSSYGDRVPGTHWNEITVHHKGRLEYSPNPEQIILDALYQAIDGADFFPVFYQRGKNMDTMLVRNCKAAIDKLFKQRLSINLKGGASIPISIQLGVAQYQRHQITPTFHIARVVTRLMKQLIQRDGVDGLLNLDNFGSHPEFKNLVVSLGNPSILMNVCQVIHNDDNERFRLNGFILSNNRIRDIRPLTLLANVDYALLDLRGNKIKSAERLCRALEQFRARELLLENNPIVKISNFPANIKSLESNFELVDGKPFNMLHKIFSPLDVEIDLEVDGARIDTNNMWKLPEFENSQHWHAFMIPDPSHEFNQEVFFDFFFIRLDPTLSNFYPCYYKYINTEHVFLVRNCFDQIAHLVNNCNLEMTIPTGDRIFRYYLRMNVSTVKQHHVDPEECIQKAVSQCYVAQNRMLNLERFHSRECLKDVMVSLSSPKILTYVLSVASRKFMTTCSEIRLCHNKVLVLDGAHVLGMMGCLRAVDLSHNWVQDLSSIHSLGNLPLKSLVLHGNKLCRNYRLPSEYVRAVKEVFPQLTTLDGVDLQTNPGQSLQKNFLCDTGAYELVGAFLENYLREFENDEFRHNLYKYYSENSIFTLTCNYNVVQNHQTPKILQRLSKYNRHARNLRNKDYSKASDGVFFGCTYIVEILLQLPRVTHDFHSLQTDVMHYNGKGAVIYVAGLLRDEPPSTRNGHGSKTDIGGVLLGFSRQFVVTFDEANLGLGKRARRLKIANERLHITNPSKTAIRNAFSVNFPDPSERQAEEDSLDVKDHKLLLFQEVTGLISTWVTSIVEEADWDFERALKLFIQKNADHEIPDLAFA

Assays:
[1] = biological target: TDRD3 (Drosophila) (Drosophila (endogenous in fly ovaries and OSS cells)) (UniProt Q9VUH8); assay: affinity purification with mass spectrometry; reciprocal TDRD3 and Piwi IP from OSS cell lysates (Ripa buffer); IP buffer 20mM Hepes pH 7.9, 200mM NaCl, 0.1% NP40, 4 hours at 4 C; MS of the eluates
[2] = biological target: FLAG-tagged Top3b (Flag-Top3b), Drosophila topoisomerase 3b (Drosophila); assay: affinity purification with mass spectrometry; FLAG IP from ovary lysates of Flag-Top3b flies, mock IP from control flies lacking Flag-Top3b; silver staining and MS, two replicates; hits with >2-fold unique peptide enrichment in both replicates

Molecule | binding [1] | binding [2]
Nxf1 (from UniProt Q9U1H9 1-672) | binds | 
Ago3 (protein, UniProt Q7PLK0 1-867) MSGRGNLLSLFNKNAGNMGKSISSKDHEIDSGLDFNNSESSGERLLSSHNIETDLITTLQHVNISVGRGRARLIDTLKTDDHTSNQFITSESKENITKKTKGPESEAIASENGLFFPDLIYGSKGSSVNIYCNYLKLTTDESKGVFNYEVRFFPPIDSVHLRIKYLNDHKDKLGGTKTFDGNTLYLPILLPNKMTVFISKAEDVELQIRILYKKKEEMRNCTQLYNILFDRVMKVLNYVKFDRKQFDPSRPKIIPLAKLEVWPGYVTAVDEYKGGLMLCCDVSHRILCQKTVLEMLVDLYQQNVEHYQESARKMLVGNIVLTRYNNRTYKINDICFDQNPTCQFEIKTGCTSYVEYYKQYHNINIKDVNQPLIYSIKKSRGIPAERENLQFCLIPELCYLTGLRDEVRSDNKLMREIATFTRVSPNQRQMALNKFYENVSNTPAAQEILNSWGLSLTNNSNKISGRQMDIEQIYFSKISVSAGRSAEFSKHAVTNEMLKVVHLSKWIIIHLRNYRQAATSLLDNMKQACESLGMNISNPTMISLDHDRIDAYIQALRRNITMNTQMVVCICHNRRDDRYAAIKKICCSEIPIPSQVINAKTLQNDLKIRSVVQKIVLQMNCKLGGSLWTVKIPFKNVMICGIDSYHDPSNRGNSVAAFVASINSSYSQWYSKAVVQTKREEIVNGLSASFEIALKMYRKRNGKLPTNIIIYRDGIGDGQLYTCLNYEIPQFEMVCGNRIKISYIVVQKRINTRIFSGSGIHLENPLPGTVVDQHITKSNMYDFFLVSQLVRQGTVTPTHYVVLRDDCNYGPDIIQKLSYKLCFLYYNWAGTVRIPACCMYAHKLAYLIGQSIQRDVAEALSEKLFYL |  | no binding

Continued, values first:

binding [1] | binding [2] | Molecule
binds |  | Nxf2 (from UniProt Q9VV73 1-841)
binds | binds | Piwi (protein, UniProt Q9VKM1 1-843) MADDQGRGRRRPLNEDDSSTSRGSGDGPRVKVFRGSSSGDPRADPRIEASRERRALEEAPRREGGPTERKPWGDQYDYLNTRPAELVSKKGTDGVPVMLQTNFFRLKTKPEWRIVHYHVEFEPSIENPRVRMGVLSNHANLLGSGYLFDGLQLFTTRKFEQEITVLSGKSKLDIEYKISIKFVGFISCAEPRFLQVLNLILRRSMKGLNLELVGRNLFDPRAKIEIREFKMELWPGYETSIRQHEKDILLGTEITHKVMRTETIYDIMRRCSHNPARHQDEVRVNVLDLIVLTDYNNRTYRINDVDFGQTPKSTFSCKGRDISFVEYYLTKYNIRIRDHNQPLLISKNRDKALKTNASELVVLIPELCRVTGLNAEMRSNFQLMRAMSSYTRMNPKQRTDRLRAFNHRLQNTPESVKVLRDWNMELDKNVTEVQGRIIGQQNIVFHNGKVPAGENADWQRHFRDQRMLTTPSDGLDRWAVIAPQRNSHELRTLLDSLYRAASGMGLRIRSPQEFIIYDDRTGTYVRAMDDCVRSDPKLILCLVPNDNAERYSSIKKRGYVDRAVPTQVVTLKTTKNRSLMSIATKIAIQLNCKLGYTPWMIELPLSGLMTIGFDIAKSTRDRKRAYGALIASMDLQQNSTYFSTVTECSAFDVLANTLWPMIAKALRQYQHEHRKLPSRIVFYRDGVSSGSLKQLFEFEVKDIIEKLKTEYARVQLSPPQLAYIVVTRSMNTRFFLNGQNPPPGTIVDDVITLPERYDFYLVSQQVRQGTVSPTSYNVLYSSMGLSPEKMQKLTYKMCHLYYNWSGTTRVPAVCQYAKKLATLVGTNLHSIPQNALEKKFYYL
binds |  | SpnE (protein, UniProt Q9VF26 1-1434) MDQEVMDFFDFSKELKRVAAAPQGYISSDPRLMATKFKSSEVPNRELIGTDYVSKIVAKEKCLLNGTLLNEQPQGKRIRTLDDLDTDDEGEETEIRRDDEYYKKFRFNLNRDKNLSIYAKREEILAAINAHPVVIIKGETGCGKTTQVPQYILDEAYKSGKYCNIVVTQPRRIAAISIANRVCQEREWQQNTVCSFQVGLHRPNSLEDTRLLYCTTGVLLNNLINNKTLTHYTHIVLDEVHERDQNMDFLLIVVRRLLATNSRHVKIILMSATIDAKELSDYFTTTNSIPPVITTNHRRKHSIEKFYRDQLGSIIWNEEDVGHQQVPEINKHGYRAAVKIIVIIDNMERKAAIQSRQSYDEALRYGAVLIFLPGIYEIDTMAENLTCMLENDPNIKVSIVRCFSLMTPENQRDVFNPPPPGFRKIILTTNIAESSITVPDVSYVIDFCLAKVKVTDTASSFSSLRLTWASKANCRQRAGRVGRLRSGRVYRMVNKHFYQREMPEFGIPEMLRLPLQNSVLKAKVLNMGSPVEILALALSPPNLSDIHNTILLLKEVGALYLTVDGIYDPLDGDLTYWGTIMSRLPLDTRQSRLIILGYIFNMLEEAIIIAAGLSTPGLFAHEGGRSQLGDSFWMHYIFSDGSGSDLVAIWRVYLTYLNIVENGHDQESAIRWAKRFHVSLRSLKEIHLLVQELRVRCTHLGLIPFPVNPNQMMDDREKAIMLKVIIAGAFYPNYFTRSKESCADTDRNIYQTISGHDPCRTVYFTNFKPAYMGELYTRRIKELFQEVRIPPENMDVTFQEGSQKVFVTFKQDDWIEGSSKYVPVSGRVQSEVYKAVMMRQNRVERPIHIMNPSAFMSYVQQRGIGDVIEGRWIPPTKPLNVELLALPSVFDKTISGSITCIVNCGKFFFQPQSFEECIRNMSEIFNAPQQLRNYVTNASAIAKGMMVLAKRDSYFQRATVIRPENQSNRQPMFYVRFIDYGNCTLLPMQLMRLMPRELTEQYGDLPPRVFECRLAMVQPSSVVSGNNRWSTAANDMLKTVAQCGLIDIEVYSLFNNVAAVLIHMRDGIINDKLVELMLCRRSDEDYMSRKDHDFRLRRQESARNLSTAQRQQINEEYLRSCQLPQDHDLPPPPLEKCKTVVMLKGPNSPLECTMRSITRVGLSKRVNIDHLSVNALLLDADPQDHHDHLIVAHEIAESRNGQTLTARGTTLMPNVQGFGALMVMLFSPTMQLKCNKEGTSYVSVLGGLGCDPDTNEPYFAEHDVLINLDVNILEDDVILINQIRYYIDSVFFNFKEENNPAVSVNERVSIYTQLRSLINRLLCKDRRYIERNMSNADFEWETNPELPLPNEPFGKRAIFPMHSLTELQEEDTGRLVQLRENCSMLHKWRNFEGTLPHMTCKLCNQLLESVPQLRLHLLTILHRDREKQIDYCNQ
